Experimental data published in publication PMC12181424 (Scientific Reports, 2025).

Columns and labels:
[1] = general procedure: Fmoc solid-phase peptide synthesis; H-L-Ile-2-chlorotrityl resin (0.74 mmol/g); HATU/DIPEA; settings: whole synthesis, scale 0.779 mmol
[2] = general procedure: Fmoc solid-phase peptide synthesis; 2-chlorotrityl resin; HATU/DIPEA; settings: whole synthesis, overall, scale 0.779 mmol

Substance: (2-((S)-5-guanidino-2-(3-methyl-2-((S)-2-((S)-2-methylbutanamido)-3-phenylpropanamido)but-2-enamido)pentanamido)-3-methylbut-2-enoyl)-L-leucine
- isolated mass [1]: 54.5 mg
- isolated yield [2]: 17%
